Data on 8 compounds can be found in the supplement of paper PMC11098740.

By UniProt entry, the sequences of proteins in these tests, tags left out.
UniProt O14980, whole entry: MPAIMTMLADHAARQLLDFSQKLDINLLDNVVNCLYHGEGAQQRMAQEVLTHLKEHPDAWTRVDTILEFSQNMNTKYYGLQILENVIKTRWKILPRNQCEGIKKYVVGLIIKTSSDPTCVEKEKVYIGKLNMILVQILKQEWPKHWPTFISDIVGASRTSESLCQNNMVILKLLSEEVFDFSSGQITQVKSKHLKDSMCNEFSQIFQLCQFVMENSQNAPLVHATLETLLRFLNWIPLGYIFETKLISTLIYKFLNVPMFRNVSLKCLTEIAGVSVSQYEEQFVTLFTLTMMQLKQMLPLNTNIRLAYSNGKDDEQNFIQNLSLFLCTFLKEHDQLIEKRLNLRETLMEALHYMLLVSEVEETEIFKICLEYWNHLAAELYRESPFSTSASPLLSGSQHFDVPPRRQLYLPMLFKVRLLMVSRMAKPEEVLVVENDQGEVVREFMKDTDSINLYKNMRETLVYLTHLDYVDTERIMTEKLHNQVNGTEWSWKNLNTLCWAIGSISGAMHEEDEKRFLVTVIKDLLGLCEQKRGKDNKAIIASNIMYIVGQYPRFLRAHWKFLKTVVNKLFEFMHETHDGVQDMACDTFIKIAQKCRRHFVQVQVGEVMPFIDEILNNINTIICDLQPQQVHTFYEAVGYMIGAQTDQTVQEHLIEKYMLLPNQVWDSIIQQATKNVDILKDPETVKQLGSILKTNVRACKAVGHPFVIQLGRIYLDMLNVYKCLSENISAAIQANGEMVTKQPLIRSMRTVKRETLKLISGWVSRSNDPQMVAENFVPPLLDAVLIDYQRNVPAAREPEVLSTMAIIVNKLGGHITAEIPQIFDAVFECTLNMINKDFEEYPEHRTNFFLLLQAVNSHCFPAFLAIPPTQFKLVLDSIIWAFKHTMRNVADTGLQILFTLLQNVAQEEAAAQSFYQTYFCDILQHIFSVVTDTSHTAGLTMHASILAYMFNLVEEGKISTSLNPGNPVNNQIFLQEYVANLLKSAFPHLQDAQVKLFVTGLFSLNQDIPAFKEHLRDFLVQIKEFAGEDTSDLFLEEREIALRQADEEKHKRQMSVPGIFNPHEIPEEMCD

The list shows a part of the results. Repeats are few or missing, and single values can be far off.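 The assay uses a mixed pool of 41 HAP1 clones in which 61 cancer-associated proteins bear intron-inserted fluorescent tags, and clones are distinguished by image pattern. Results are compared against DMSO-treated control wells, and the BRD4 degrader dBET6 is the positive control.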

The target in this test is XPO1 (intron 15 mScarlet tag, HAP1) (UniProt O14980). Description: XPO1 fluorescence intensity change vs DMSO (log2 fold change); higher = more XPO1 protein. As to conditions: 6 h.
For `Cc1ccc(NC(=O)c2ccc(CN3CCN(C)CC3)cc2)cc1Nc1nc(-c2cccnc2)cs1` [Masitinib] (10 µM), the “XPO1 fluorescence intensity change (log2)” value came to 0.118.
The figure for `C[C@H]1O[C@@H](O[C@H]2[C@@H](O)C[C@H](O[C@H]3[C@@H](O)C[C@H](O[C@H]4CC[C@@]5(C)[C@H](CC[C@@H]6[C@@H]5CC[C@]5(C)[C@@H](C7=CC(=O)OC7)CC[C@]65O)C4)O[C@@H]3C)O[C@@H]2C)C[C@H](O)[C@@H]1O` [Digitoxin] (10.0002 µM) is 0.212.
The figure for `CCCCCOC(=O)Nc1nc(=O)n([C@@H]2O[C@H](C)[C@@H](O)[C@H]2O)cc1F` [Capecitabine] (20 µM) is -0.053; for `O=C1CCC(N2C(=O)c3ccccc3C2=O)C(=O)N1` (stereo not drawn) [Thalidomide] (9.40275 µM) it is -0.129.
Take `N[C@@H](Cc1cc(I)c(Oc2ccc(O)c(I)c2)c(I)c1)C(=O)O` [Liothyronine] (10 µM): the “XPO1 fluorescence intensity change (log2)” value worked out at 0.0329.
Turning to `O=C(Nc1ncc([N+](=O)[O-])s1)c1ccccc1O` [Tizoxanide] (10 µM), the “XPO1 fluorescence intensity change (log2)” value is -0.0815.
Turning to `CC1=C(/C=C/C(C)=C/C=C/C(C)=C/C(=O)O)C(C)(C)CCC1` [Tretinoin] (20 µM), the “XPO1 fluorescence intensity change (log2)” value was 0.0309.
The figure for `CO/N=C(\C(=O)N[C@@H]1C(=O)N2C(C(=O)O)=C(CSc3nnnn3C)CS[C@H]12)c1csc(N)n1` [Cefmenoxime] (10 µM) is 0.219.
